Entries after “also recorded” stand apart in the source; their conditions may differ. At least one compound was matched to its structure with a doubt left.
Experiments:
[1] = test system: keratinocytes downregulated for FLG2; experiment: Dispase dissociation assay, normal keratinocytes transfected with FLG2-specific siRNA; format: cell-based; settings: 10 μM, vs DMSO
[2] = test system: PSS patient keratinocytes; experiment: Dispase dissociation assay, PSS patient keratinocytes; format: cell-based, human; settings: 10 μM, vs DMSO

SMILES: C=C(C)[C@@H]1CC[C@]2(C(=O)O)CC[C@]3(C)[C@H](CC[C@@H]4[C@@]5(C)CC[C@H](O)C(C)(C)[C@@H]5CC[C@]43C)[C@@H]12 [betulinic acid]
- rescue of keratinocytes disadhesion phenotype (number of fragments after mechanical stress) [1]: capable of rescuing the keratinocytes disadhesion phenotype; also recorded: able to rescue the keratinocytes disadhesion phenotype
- rescue of keratinocytes disadhesion phenotype (number of fragments after mechanical stress) [2]: able to rescue the keratinocytes disadhesion phenotype

— US20220226348A1, “METHOD AND COMPOSITION FOR TREATMENT OF SKIN DISEASES ASSOCIATED WITH ACCELERATED CORNEODESMOSOMES DEGRADATION OR WEAKER CELL-CELL ADHESION” (ICHILOV TECH LTD, priority 2019, published 2022)
